Paper PMC7858277
Results are given in words; binding and its absence hold for the method and conditions named. In cells and extracts the contact can be indirect. Some binding calls cover weakened binding; strength is not graded here. For part of these data: Tags and fused reporters may be left off the sequences shown. One block for each molecule: values may come before it.

The chains behind the UniProt entries cited, without tags or fusion partners.
UniProt Q86TM6: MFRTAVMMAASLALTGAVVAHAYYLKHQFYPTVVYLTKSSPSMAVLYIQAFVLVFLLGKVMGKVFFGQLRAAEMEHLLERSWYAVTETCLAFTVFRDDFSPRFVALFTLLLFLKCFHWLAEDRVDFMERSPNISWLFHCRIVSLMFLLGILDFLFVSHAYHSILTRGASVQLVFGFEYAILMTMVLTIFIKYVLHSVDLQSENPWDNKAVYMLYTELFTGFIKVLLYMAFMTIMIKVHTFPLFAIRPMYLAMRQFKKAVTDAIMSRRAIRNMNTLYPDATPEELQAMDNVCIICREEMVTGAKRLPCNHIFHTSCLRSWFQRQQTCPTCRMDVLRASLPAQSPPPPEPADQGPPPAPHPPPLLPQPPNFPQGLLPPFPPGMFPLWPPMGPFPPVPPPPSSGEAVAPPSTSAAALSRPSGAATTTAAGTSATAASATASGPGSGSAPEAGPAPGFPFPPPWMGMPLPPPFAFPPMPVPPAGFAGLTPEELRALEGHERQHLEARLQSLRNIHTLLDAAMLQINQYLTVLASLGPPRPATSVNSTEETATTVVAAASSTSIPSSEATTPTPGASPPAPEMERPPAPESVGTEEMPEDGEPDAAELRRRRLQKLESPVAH

Experiments:
Flag-CPT2 = target: T1, Flag-CPT2 (UniProt P23786); experiment: co-IP; HEK 293T cells transfected for 24 h with Flag-CPT2 and Myc-HRD1 alone or in combination; lysates (NETN buffer) immunoprecipitated with anti-Flag and anti-Myc; immunoblot with anti-Myc or anti-Flag
T1 sequence: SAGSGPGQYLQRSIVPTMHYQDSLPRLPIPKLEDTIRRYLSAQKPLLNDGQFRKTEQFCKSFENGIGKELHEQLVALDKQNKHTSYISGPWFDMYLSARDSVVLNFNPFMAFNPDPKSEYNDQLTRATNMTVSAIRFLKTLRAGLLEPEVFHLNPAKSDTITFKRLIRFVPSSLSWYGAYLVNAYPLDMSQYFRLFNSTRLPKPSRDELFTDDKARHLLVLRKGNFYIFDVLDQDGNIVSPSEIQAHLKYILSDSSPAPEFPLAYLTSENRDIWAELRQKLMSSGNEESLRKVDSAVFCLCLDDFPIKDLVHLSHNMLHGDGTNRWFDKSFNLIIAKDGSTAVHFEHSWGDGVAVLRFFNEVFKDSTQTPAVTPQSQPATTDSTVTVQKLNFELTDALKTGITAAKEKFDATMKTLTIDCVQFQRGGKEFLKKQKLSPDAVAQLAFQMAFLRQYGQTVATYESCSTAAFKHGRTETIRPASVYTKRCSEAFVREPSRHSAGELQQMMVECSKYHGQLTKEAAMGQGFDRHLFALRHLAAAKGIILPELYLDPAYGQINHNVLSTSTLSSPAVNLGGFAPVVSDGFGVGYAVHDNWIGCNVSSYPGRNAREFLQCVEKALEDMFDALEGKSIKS

[1] = target: HMG-CoA reductase degradation protein 1 (HRD1), endogenous (human (endogenous in MDA-MB-231)) (UniProt Q86TM6); experiment: co-IP; MDA-MB-231 cell lysates (NETN lysis buffer) immunoprecipitated with IgG or HRD1 antibody; immunoblot with HRD1, CPT2 or CPT1A antibody
Myc-HRD1 = Myc-HRD1 (UniProt Q86TM6); experiment: co-IP; HEK 293T cells transfected for 24 h with Flag-CPT2 and Myc-HRD1 alone or in combination; lysates (NETN buffer) immunoprecipitated with anti-Flag and anti-Myc; immunoblot with anti-Myc or anti-Flag

binding (Flag-CPT2): binds
Molecule: Myc-HRD1 (from UniProt Q86TM6 1-617) (enzyme)

binding [1]: binds
B1: carnitine palmitoyltransferase 2 (CPT2), endogenous (enzyme, UniProt P23786 26-658)
chain: T1 sequence

binding (Myc-HRD1): binds
B2: Flag-CPT2 (enzyme, UniProt P23786 26-658)
chain: T1 sequence
